Each number is a percent effect as filed.
The controls that fix the scale are not given in the record; negative values are as filed.
Compounds were drawn at random from those tested, without regard to their results.

A: 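Whole-parasite assay of Trypanosoma brucei over 72 hours; the read-out is not stated. Concentration: 30 µM. The record gives no direction; compounds that gave an IC50 in retests scored well above the rest, so higher reads as stronger inhibition. Values scatter widely below zero; nearly all retest evidence comes from the higher of the two concentrations used. Size under these conditions: about 64,000 compounds, about 940 of them at 50% or above in at least one test.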
B: 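Assay of Toxoplasma gondii numbers, read through their beta-galactosidase reporter with a colour substrate. Compounds at 10 µM. Higher reads as fewer parasites (inferred from which compounds were picked for retests). About 67,000 compounds were tested under these conditions; 0.38% (about 260) showed 50% or more at least once.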

* COc1ccc(C2=Nn3c(CCN)nnc3-c3ccccc3C2)cc1 | A: -7.387%; B: -12.56%
* O=C(CCN1CCC(c2cc3ccccc3[nH]2)CC1)N1CCOCC1 | A: -58.02%; B: -24.62%
* [H][C@@]12C[C@H](C(=O)NC)[C@@]([H])(CN(c3ncc(CC)cn3)C1)O2 | A: -7.079%; B: 4.926%
* COC(=O)Cn1ccc(=O)c2ccc(OC)cc21 | A: -81.66%; B: 8.892%
* O=C(NCc1cccnc1)Nc1cc(C(F)(F)F)c[nH]c1=O | B: -21.11%
* CN1CCN(Cc2cccnc2)C2(CCN(c3ncccn3)C2)C1=O.O=C(O)C(F)(F)F.O=C(O)C(F)(F)F (stereo not drawn) | A: -40.31%; B: 5.847%
* O=C(O)C(F)(F)F.[H][C@@]12CCN(CC3CCOCC3)[C@@]1([H])CCN2C(=O)c1ccc(C#N)cc1 | A: -12.38%; B: 21.78%
* O=C(NCCc1nc(C2CC2)no1)[C@H]1CNC[C@H](C(=O)N2CCCC2)C1 | A: -18.49%; B: -27.36%
* COc1cc(CN(C)C(=O)NCc2cccnc2OC)ccc1SC | A: -21.92%; B: -8.372%
* CCOc1ccc(N2CCC(C(O)c3ccccc3)CC2)nn1 (stereo not drawn) | A: -23.54%; B: -6.849%
* CN(C)Cc1cncc2c1CCN(C1CCOCC1)C2.Cl.Cl.Cl | A: -35.22%; B: 5.36%
* CCc1nc(C2CCCN(C(=O)c3ccc4c(c3)nnn4C)C2)no1 (stereo not drawn) | A: 2.828%; B: 1.359%
* O=C(Cc1cccc(O)c1)N1CCCC(OCc2cccnc2)C1 (stereo not drawn) | A: -10.17%; B: 9.443%
* c1ncn(Cc2ccc(CNCc3ccc4c(c3)OCCO4)cc2)n1 | A: 12.3%
* COc1ncccc1NC(=O)NC1CCOc2ccccc21 (stereo not drawn) | A: 23.26%; B: 5.816%
* CC[C@@H](CO)NC(=O)c1cccc(CCC(C)(C)O)c1 | B: -15.17%
* Cc1noc(C)c1C(=O)N[C@@H]1CCC[C@@H](Oc2ccccc2)[C@@H]1O | A: 5.859%; B: 7.09%
* CSc1ccccc1C(=O)N1C[C@@H](N(C)C)[C@H](c2ccc(C)cc2)C1 | A: 18.13%; B: 7.246%
* Cc1nn(CCCNC(=O)C2CCN(S(C)(=O)=O)CC2)cc1Br | A: 5.401%; B: 19.22%
* COc1ccc2c(c1)OCC(CNC1CCc3nc(C)nn3C1)=C2 (stereo not drawn) | A: -20.49%; B: 9.57%
* CCNC(=O)[C@@H]1C[C@H](N)CN1C(=O)C1(c2ccc(OC)cc2)CCCC1 | A: -25.11%; B: 20.01%
* CN(C)CCN1CCC2(CCN(C(=O)c3ccc(F)cc3)CC2)C1=O.O=C(O)C(F)(F)F | A: -18.87%; B: 2.112%
* [H][C@]12CC[C@]([H])(CN(Cc3ccncc3)C1)N(Cc1cccc(O)c1)C2 | A: -249.1%; B: -0.1952%
* [H][C@@]12CCCO[C@]1([H])[C@@H](NS(C)(=O)=O)CN2C(=O)c1cscn1 | A: 28.48%; B: -7.353%
* CCOCC(O)CN1CCN(C(=O)C(C)(C)CC)CC1 (stereo not drawn) | A: -27.48%; B: 6.252%
* O=C(c1nc2sccn2c1-c1ncc[nH]1)N1CCCCC1 | A: -36.95%
* Cc1cc(NCCS(C)(=O)=O)nc2cc3c(cc12)CCC3 | A: 3.514%; B: -2.999%
* CN(C)c1ccc(CC2COCCN(Cc3nccn3C)C2)nn1 (stereo not drawn) | A: 25.5%; B: 10.37%
* c1cc(CN2CCOC3(CCCC3)C2)no1 | A: -51.2%; B: 11.04%
* COc1cccc(-n2nnc(C(=O)N3CCN(C)CC3C)c2C)c1 (stereo not drawn) | A: -4.108%; B: -5.94%
* CC(C)(NC(=O)c1cnc(C(C)(C)C)s1)C(N)=O | A: -34.31%; B: 20.43%
* O=C(O)C(F)(F)F.[H][C@@]12CN(C(=O)Cc3ccccn3)C[C@]1([H])[C@@H]2CC(=O)NC(C)C | A: 2.239%; B: 4.563%
* O=C(O)C(F)(F)F.[H][C@]12CCN(C(=O)c3ccc(C)o3)C[C@@]1([H])OCCN(C1CCOCC1)C2 | A: -1.431%; B: -6.47%

The values are deposited in ChEMBL (CHEMBL3988442, “University of Dundee, Small-Polar-MMV Screening Library” (2021)).